From PubChem BioAssay record AID1080 (Emory University Molecular Libraries Screening Center, 2008).

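A cell line overexpressing EP4 prostanoid receptors, stimulated with a low (about EC15) PGE2 dose; cAMP read by HTRF FRET after a short room-temperature incubation. Compounds were tested at 20 µM final. A low (about EC15) PGE2 dose was present. Percent cAMP induction as a fraction of the 1 µM PGE2 response, averaged over three replicates; a higher value means more cAMP.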

Values are in %. Common to all entries: measured here: EP4 receptor counter-screen. Part of the compounds only, not a random draw; the main read-out is not listed here.

Result for CCOP(=O)(OCC)c1nc(-c2cccc3ccccc23)oc1NCCc1ccc(OC)cc1 [percent of 1 uM PGE2 response; plus low (about EC15) PGE2 agonist] was cAMP induction -11.12%. Result for CCOC(=O)c1c(-c2cccs2)csc1NC(=O)COC(=O)c1c(C)noc1C [percent of 1 uM PGE2 response; plus low (about EC15) PGE2 agonist] was cAMP induction 1.833%. For O=C(Nc1ccccc1N1CCCCC1)c1ccccc1F [percent of 1 uM PGE2 response; plus low (about EC15) PGE2 agonist] the result was cAMP induction 18.39%. Clc1ccccc1Cn1c(/C=C/c2ccco2)nc2ccccc21 [percent of 1 uM PGE2 response; plus low (about EC15) PGE2 agonist] gave cAMP induction -8.46%. For CCOC(=O)c1c(NC(=O)c2ccc(Br)o2)sc(C)c1CC [percent of 1 uM PGE2 response; plus low (about EC15) PGE2 agonist] the result was cAMP induction -5.433%.

Nc1n[nH]c2c1C1(CCCCC1)Cc1ccccc1-2 [percent of 1 uM PGE2 response; plus low (about EC15) PGE2 agonist] read cAMP induction 11.34%. Result for CSc1nc(-c2ccc(Cl)cc2)nn1S(=O)(=O)c1ccccc1 [percent of 1 uM PGE2 response; plus low (about EC15) PGE2 agonist] was cAMP induction -3.23%. For Cc1cc(O)ccc1C1(c2ccc(O)cc2C)OC(=O)c2ccccc21 [percent of 1 uM PGE2 response; plus low (about EC15) PGE2 agonist] the result was cAMP induction -7.957%. For Cc1cc(C)c(S(=O)(=O)c2ccccc2)c(OC(=O)c2c(Cl)cc(Cl)cc2Cl)n1 [percent of 1 uM PGE2 response; plus low (about EC15) PGE2 agonist] the result was cAMP induction -8.89%. O=S(=O)(c1ccccc1)c1nc(-c2ccco2)oc1N1CCCCCC1 [percent of 1 uM PGE2 response; plus low (about EC15) PGE2 agonist] read cAMP induction -9.487%.

Result for O=C(c1ccco1)N(CC1CCCO1)c1nc(-c2ccccc2)cs1 (stereo not shown) [percent of 1 uM PGE2 response; plus low (about EC15) PGE2 agonist] was cAMP induction 2.887%. CN(Cc1c(C(=O)N2CCc3ccccc3C2)nc2ccc(Cl)cn12)C(C1CC1)C1CC1 [percent of 1 uM PGE2 response; plus low (about EC15) PGE2 agonist] gave cAMP induction 2.977%. Cc1cc(C(=O)NCC(c2ccco2)N(C)C)no1 (stereo not shown) [percent of 1 uM PGE2 response; plus low (about EC15) PGE2 agonist] gave cAMP induction 2.06%. Result for Cc1ccccc1Cn1c2ccccc2c2cn[nH]c(=O)c21 [percent of 1 uM PGE2 response; plus low (about EC15) PGE2 agonist] was cAMP induction 6.703%. COC(=O)c1c(NC(=S)NN2CCOCC2)sc2c1CCCC2 [percent of 1 uM PGE2 response; plus low (about EC15) PGE2 agonist] gave cAMP induction -3.96%.

With Cc1ccc2nc(Nc3ccc4[nH]c(=O)[nH]c4c3)c(-n3nc(C)cc3C)nc2c1 [percent of 1 uM PGE2 response; plus low (about EC15) PGE2 agonist] the assay gave cAMP induction 16.64%. c1ccc(-c2ccccc2-c2nc(-c3cccnc3)no2)cc1 [percent of 1 uM PGE2 response; plus low (about EC15) PGE2 agonist] read cAMP induction -5.61%. C=C(C)Cn1c(C)cc(C)c(S(=O)(=O)c2ccc(C)cc2)c1=O [percent of 1 uM PGE2 response; plus low (about EC15) PGE2 agonist] read cAMP induction -13.34%.

Repeated from the top, 2 entries:

structure	tested on / at	cAMP induction (%)
CCOP(=O)(OCC)c1nc(-c2cccc3ccccc23)oc1NCCc1ccc(OC)cc1	percent of 1 uM PGE2 response; plus low (about EC15) PGE2 agonist	-11.12
CCOC(=O)c1c(-c2cccs2)csc1NC(=O)COC(=O)c1c(C)noc1C	percent of 1 uM PGE2 response; plus low (about EC15) PGE2 agonist	1.833